Results published in patent US20100240040A1, “METHOD FOR SCREENING FOR SELECTIVE MODULATOR OF THE NF-KB PATHWAY ACTIVATION” (INSTITUT PASTEUR, priority 2007, published 2010).
Results are given in words; binding and its absence hold for the method and conditions named. Binding seen in cells or lysates may run through a third protein. Some entries that bind do so weakly or less than the wild type.

Protein sequences, listed by entry. Tags and fused reporters are not part of them. Lines headed by an entry give the natural chain unless they say otherwise; changes in a name come on top.
UniProt O88522: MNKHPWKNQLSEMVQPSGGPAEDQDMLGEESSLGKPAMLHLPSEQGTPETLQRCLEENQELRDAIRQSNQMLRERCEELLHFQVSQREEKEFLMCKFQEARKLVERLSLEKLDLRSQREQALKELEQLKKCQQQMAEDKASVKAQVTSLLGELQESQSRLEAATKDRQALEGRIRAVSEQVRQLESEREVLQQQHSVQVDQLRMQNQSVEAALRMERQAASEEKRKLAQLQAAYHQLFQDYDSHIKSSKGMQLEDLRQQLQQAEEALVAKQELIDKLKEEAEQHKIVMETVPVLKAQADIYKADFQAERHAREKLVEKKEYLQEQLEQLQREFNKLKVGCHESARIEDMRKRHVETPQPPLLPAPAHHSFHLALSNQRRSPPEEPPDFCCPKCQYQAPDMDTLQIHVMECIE

Legend:
Flag-NEMO (murine) [1] = biological target: Flag-NEMO (murine) (UniProt O88522); experiment: refers to the pull-down of Example 3
Flag-NEMO (murine) [2] = biological target: Flag-NEMO (murine) (UniProt O88522); experiment: cells treated with labelled peptide, anti-Flag pull-down of Flag-NEMO, Bodipy fluorescence on beads
Flag-NEMO (murine) [3] = biological target: Flag-NEMO (murine) (UniProt O88522); experiment: cells treated with 20 µM labelled peptide, anti-Flag pull-down of Flag-NEMO, Bodipy fluorescence on beads

- binding (Flag-NEMO (murine) [1]): binds
- binding (Flag-NEMO (murine) [2]): binds
- binding (Flag-NEMO (murine) [3]): binds
Binder: CRQIKIWFQNRRMKWKKLKAQADIYKARFQAERHAREK (Bodipy on the N-terminal cysteine (maleimide coupling)) [BA-DR NLM]
